Results taken from the supplement of paper PMC3334620.
The full ranking holds about 33,000 sequences; the median of “E-score (-0.5 to 0.5)” is about -0.015, and the highest 2% start at about 0.3. The list shows a part of the results.

biological target: T1, Abf1 (UniProt P14164); assay: PBM E-score (8-mer binding enrichment) (E-score (-0.5 to 0.5)); higher = stronger / more preferred TF binding; details: protein concentration: 200 nM; construct: GST-full length
T1 sequence: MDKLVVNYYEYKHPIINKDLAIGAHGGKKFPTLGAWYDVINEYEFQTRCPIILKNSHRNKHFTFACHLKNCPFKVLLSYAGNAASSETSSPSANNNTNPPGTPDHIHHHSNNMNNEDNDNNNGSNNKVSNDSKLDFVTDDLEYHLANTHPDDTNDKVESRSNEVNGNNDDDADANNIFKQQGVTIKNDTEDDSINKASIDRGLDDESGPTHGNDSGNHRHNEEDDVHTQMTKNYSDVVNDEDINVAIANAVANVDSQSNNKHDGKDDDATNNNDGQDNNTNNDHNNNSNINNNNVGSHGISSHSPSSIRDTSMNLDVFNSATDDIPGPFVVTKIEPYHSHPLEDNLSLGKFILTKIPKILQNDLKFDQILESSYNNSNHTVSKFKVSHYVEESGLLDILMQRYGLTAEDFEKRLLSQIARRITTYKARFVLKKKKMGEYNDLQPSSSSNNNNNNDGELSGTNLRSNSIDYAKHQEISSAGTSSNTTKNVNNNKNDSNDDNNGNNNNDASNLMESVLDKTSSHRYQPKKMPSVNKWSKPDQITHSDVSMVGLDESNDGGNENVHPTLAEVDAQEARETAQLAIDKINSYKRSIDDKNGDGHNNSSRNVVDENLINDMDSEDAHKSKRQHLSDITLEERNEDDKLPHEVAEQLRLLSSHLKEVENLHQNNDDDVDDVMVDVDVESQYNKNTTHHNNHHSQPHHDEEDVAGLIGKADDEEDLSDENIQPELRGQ
Summary of the method: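 Masliner-normalised scans of fluorescent anti-GST signal were the basis for scoring. That signal came from GST-tagged yeast transcription factors applied at about 100-200 nM to double-stranded universal all-10-mer Agilent arrays on fresh or once-stripped slides. Each ungapped eight-base word, pooled with its reverse complement, received an E-score from the Universal PBM Analysis Suite.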

| Sequence | PBM E-score |
| --- | --- |
| AAAGCAAT | 0.123 |
| AACACAAC | -0.029 |
| GGGGCGAA | -0.295 |
| GGCTTACA | -0.00181 |
| AAGGGACA | -0.132 |
| TACGTATA | 0.263 |
| GGATGGCA | -0.0267 |
| AGAGTATC | -0.0064 |
| ATTGTGTG | -0.137 |
| ACCTCCGA | -0.136 |
| ACTGTGCG | 0.0999 |
| ACAACTCT | -0.14 |
| ACAACTGA | -0.101 |
| GCCCTCCA | -0.28 |
| CCATTACG | -0.0138 |
| ATCTACCC | -0.136 |
| AGGTTTTG | -0.104 |
| CCCACACG | -0.0558 |
| CACCCCCG | -0.192 |
| ACCGGTGA | 0.217 |
| ATCTAAGC | -0.15 |
| AGATCAAC | -0.0362 |
| AGGTACCA | -0.18 |
| CATACTAG | 0.108 |
| ATGTTGCG | 0.106 |

| Sequence | PBM E-score |
| --- | --- |
| GCCGAGTA | -0.15 |
| CCTGTATC | 0.0189 |
| ATCCAACA | 0.157 |
| AAGGGAAA | 0.0168 |
| CCGAAGCG | -0.0317 |
| ATGGTGTG | 0.0461 |
| GCTTTCAC | 0.0159 |
| ACTTCCAC | -0.104 |
| AACGGGGG | -0.0846 |
| ACGAGGCC | 0.06 |
| GGGCCGGA | -0.147 |
| ACCAGACG | -0.103 |
| ATACCAGA | 0.00095 |
| GGTGCAAA | -0.0827 |
| CAGTAGCA | -0.119 |
| ACCCTCCT | -0.214 |
| GATTGAGC | 0.0747 |
| AATCAGGC | 0.156 |
| GTTAAAGA | 0.167 |
| AGCCCGTG | -0.0882 |
| CACGATGA | 0.197 |
| AGTATGGA | 0.0747 |
| ACGTACGA | 0.335 |
| CAGCCGTA | 0.192 |
| ATGGCGAG | 0.0386 |

| Sequence | PBM E-score |
| --- | --- |
| ACGTGTCC | -0.0119 |
| AGTAAGAA | 0.147 |
| AAGAGAAA | -0.0161 |
| GCTCAACC | -0.077 |
| GAAATTGA | 0.0589 |
| AGTTATCC | 0.0644 |
| TGCGGGAA | -0.23 |
| CTAGCTGA | 0.0355 |
| AAGACCTG | -0.0181 |
| AAAGCGAG | -0.0929 |
| AAAGCACG | 0.237 |
| CGAAAGGA | 0.191 |
| CACCCCCA | -0.176 |
| GCATTCTA | 0.0723 |
| AACCGCTG | -0.129 |
| AATACCAG | 0.101 |
| GCGTGGGA | -0.0248 |
| CCAAACAC | -0.088 |
| AAATTGCA | 0.0635 |
| CGGAACGA | 0.262 |
| GTCTAACA | -0.167 |
| AGTTGTCC | -0.0747 |
| GTCTACGA | 0.206 |
| ATTGAGTC | -0.0498 |
| TGCAGAAA | 0.0862 |

| Sequence | PBM E-score |
| --- | --- |
| GCGCGATA | 0.278 |
| AGGACAAA | 0.121 |
| CACGTTCA | -0.0257 |
| CCCGGTTC | -0.162 |
| CATCTATC | 0.0811 |
| TCGGGACA | -0.0811 |
| AGTAGGTG | -0.0684 |
| AAACCGCA | -0.114 |
| GACCCTGA | -0.142 |
| AAACCCGT | -0.131 |
| CCGGCTTA | -0.0995 |
| ACGCTTCA | -0.207 |
| ATCTTCAC | 0.14 |
| GATTCAGA | 0.0222 |
| CCCTACAG | -0.223 |
| ACAGCGGC | -0.212 |
| CGATCTGA | 0.109 |
| ACATATGT | -0.191 |
| AGCTCCCC | -0.27 |
| CTCTCCAG | -0.221 |
| GACCGCTC | -0.226 |
| ACGGTGTC | 0.0607 |
| GAGAATTA | -0.0118 |
| GTATGTTA | 0.267 |
| AAGATATT | 0.169 |

| Sequence | PBM E-score |
| --- | --- |
| CGACTCGC | 0.0357 |
| GATTAGTA | 0.106 |
| AGAATCCA | -0.0362 |
| ACCTCCGG | -0.0229 |
| GGGGAATA | -0.112 |
| TAAAACAA | 0.0486 |
| GATTAATA | 0.0723 |
| ACCAGACC | 0.0665 |
| CCAACGAC | 0.0733 |
| ATAACGAC | 0.117 |
| GTCTCAGA | -0.0269 |
| CGATAAAC | 0.186 |
| CAAACGTA | 0.0782 |
| ACTGACCT | -0.173 |
| GGAAAACA | -0.0502 |
| GATTGGGC | 0.0019 |
| CTCTATCA | 0.0533 |
| GTACCGTA | 0.214 |
| CGCTATAC | -0.0933 |
| GCGTCAGC | -0.179 |
| GCTTGCCC | -0.332 |
| CAGTACGG | -0.00133 |
| ATGTTTTG | 0.115 |
| AGGCTACC | -0.058 |
| AGTGGTCC | -0.135 |

| Sequence | PBM E-score |
| --- | --- |
| CCTGGTAC | 0.0283 |
| GTAATGTA | 0.0392 |
| CCAACAAG | -0.188 |
| ATCGTTAA | 0.289 |
| CTATTTTA | 0.167 |
| AGGGTTCA | 0.0558 |
| GTTACACA | 0.152 |
| CGTTACAG | -0.0224 |
| CAGAGGGG | -0.267 |
| CTCTATTA | -0.101 |
| ATAATAGG | -0.00223 |
| ATCATGTC | 0.356 |
| ACTGTACT | -0.111 |
| ACCCTGTA | 0.0221 |
| CGTTGGCC | -0.0804 |
| AAGGCTAG | -0.0447 |
| AATTGAGC | -0.107 |
| CCAACTCC | -0.0338 |
| CGGGTTAG | -0.173 |
| CCCACGAC | 0.0916 |
| TCGGGGAA | -0.206 |
| AGTCCGCG | -0.0164 |
| AAGGTCAG | -0.192 |
| GAGTGAGC | 0.033 |
| GGGAACAA | -0.168 |

| Sequence | PBM E-score |
| --- | --- |
| CTATTGGC | -0.155 |
| CGAGGGAA | 0.0753 |
| CGCATAGC | -0.0973 |
| ACTCGTCT | 0.0807 |
| AATTTCAC | -0.0476 |
| ACATCTTA | 0.0249 |
| AAGCACTC | -0.175 |
| GCGGAGCA | -0.0601 |
| ACGAAGAT | 0.284 |
| ACACTGTC | -0.0797 |
| ACAGCAGA | -0.064 |
| CCAAAGGG | -0.158 |
| CCTTGCGC | -0.182 |
| CCTACACG | 0.0417 |
| GGACATCC | -0.153 |
| ATATCGAT | 0.186 |
| AAAGCTTC | -0.0418 |
| CTATGCTA | -0.172 |
| TTAATGAA | 0.0384 |
| GCTTCCCA | -0.132 |
| CTATCAAC | 0.0859 |
| GAGTCTAC | 0.0518 |

Single values from above:
Under PBM E-score, CTATCAAC is listed with 0.0859
Under PBM E-score, ACTCGTCT is listed with 0.0807
Under PBM E-score, ATATCGAT is listed with 0.186
Under PBM E-score, CGCATAGC is listed with -0.0973
Under PBM E-score, CCAAAGGG is listed with -0.158
Under PBM E-score, ACAGCAGA is listed with -0.064
